Assay results taken from patent US6548522B1, “Method for treating conditions related to the glutamate receptor using carboxylic acid amide derivatives” (Hoffmann-La Roche Inc., priority 1999, dated 2003).
Some results were stated once for a whole list of compounds, not compound by compound.

The chains behind the UniProt entries cited, without tags or fusion partners. Residues count along the entry.
UniProt P23385, 19-1199: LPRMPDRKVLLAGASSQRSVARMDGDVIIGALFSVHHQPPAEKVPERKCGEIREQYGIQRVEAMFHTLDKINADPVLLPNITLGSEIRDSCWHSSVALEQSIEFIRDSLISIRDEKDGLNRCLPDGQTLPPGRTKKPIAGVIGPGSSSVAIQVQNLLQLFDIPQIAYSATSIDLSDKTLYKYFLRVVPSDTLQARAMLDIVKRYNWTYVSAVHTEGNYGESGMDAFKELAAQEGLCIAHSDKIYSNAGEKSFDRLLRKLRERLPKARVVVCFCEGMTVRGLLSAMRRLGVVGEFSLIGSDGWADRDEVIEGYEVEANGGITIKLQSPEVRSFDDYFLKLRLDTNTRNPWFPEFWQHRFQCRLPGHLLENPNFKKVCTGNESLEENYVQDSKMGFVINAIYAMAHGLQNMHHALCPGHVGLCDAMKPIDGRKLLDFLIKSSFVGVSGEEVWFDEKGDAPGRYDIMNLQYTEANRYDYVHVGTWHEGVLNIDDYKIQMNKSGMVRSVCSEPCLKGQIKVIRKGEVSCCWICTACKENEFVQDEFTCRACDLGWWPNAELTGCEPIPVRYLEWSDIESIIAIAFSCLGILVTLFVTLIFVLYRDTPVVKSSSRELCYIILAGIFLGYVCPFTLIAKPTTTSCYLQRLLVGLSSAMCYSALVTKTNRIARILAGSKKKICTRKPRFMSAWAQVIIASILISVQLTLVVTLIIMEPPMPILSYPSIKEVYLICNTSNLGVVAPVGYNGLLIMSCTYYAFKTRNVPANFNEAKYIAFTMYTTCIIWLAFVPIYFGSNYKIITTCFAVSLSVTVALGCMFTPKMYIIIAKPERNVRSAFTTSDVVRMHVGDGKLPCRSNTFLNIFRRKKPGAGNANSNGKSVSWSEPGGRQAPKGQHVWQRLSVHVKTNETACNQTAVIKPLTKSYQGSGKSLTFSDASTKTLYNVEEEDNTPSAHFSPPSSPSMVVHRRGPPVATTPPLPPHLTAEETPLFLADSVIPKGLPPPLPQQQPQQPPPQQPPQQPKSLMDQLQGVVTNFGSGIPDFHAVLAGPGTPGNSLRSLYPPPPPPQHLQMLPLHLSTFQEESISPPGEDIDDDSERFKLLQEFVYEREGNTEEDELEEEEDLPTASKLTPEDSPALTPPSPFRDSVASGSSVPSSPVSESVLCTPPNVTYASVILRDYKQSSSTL

Target: T1, rat mGlu1a receptor (Rattus norvegicus, UniProt P23385)
T1 construct: expressed in transfected cells; host or cells: EBNA cells (transient transfection)
Assay: [Ca2+]i measurement (FLIPR) on mGlu1a transfected EBNA cells
Format: cell-based
Settings: mode of action, in words
Method: cDNA encoding for rat mGlula receptor obtained from Prof.
[Ca^2+]i measurement were performed on mGlu1a transfected EBNA cells after incubation of the cells with Fluo-3 AM (0.5 μM final concentration) for 1 hour at 37° C. followed by 4 washes with assay buffer (DMEM supplemented with Hank's salt and 20 mM HEPES). [Ca^2+]i measurement were done using a fluorometric imaging plate reader (FLIPR, Molecular Devices Corporation, La Jolla, Calif., USA). When compounds were evaluated as antagonists they were tested against 10 μM glutamate as agonist.
The inhibition (antagonists) or activation (agonists) curves were fitted with a four parameter logistic equation giving EC50, IC50and Hill coefficient using the iterative non linear curve fitting software Origin (Microcal Software Inc., Northampton, Mass., USA).

SMILES: CCCCCCNC(=O)C(c1ccccc1)c1ccccc1 [Example 9, N-Hexyl-2,2-diphenyl-acetamide]
- agonist or antagonist on group I mGlu receptor: agonists
